Reference: PubChem BioAssay AID1259354 (Paczesny and Yang Labs, IUPUI and University of Michigan, 2018)
Out of some 78,000 compounds screened, about 1,800 (2.3%) were called active. Inconclusive means that the source gave no clear call. Such entries were picked first, then a sample of the others. Cut-off read from the data, not from the text of the source: active = inhibition above about 30%; inconclusive = mostly about 10% to 28%; inactive = weaker than that.

Amino acid sequences for entries named in this document (tags omitted). A change or cut given only in a name is not applied to a line headed by its entry.
UniProt Q01638: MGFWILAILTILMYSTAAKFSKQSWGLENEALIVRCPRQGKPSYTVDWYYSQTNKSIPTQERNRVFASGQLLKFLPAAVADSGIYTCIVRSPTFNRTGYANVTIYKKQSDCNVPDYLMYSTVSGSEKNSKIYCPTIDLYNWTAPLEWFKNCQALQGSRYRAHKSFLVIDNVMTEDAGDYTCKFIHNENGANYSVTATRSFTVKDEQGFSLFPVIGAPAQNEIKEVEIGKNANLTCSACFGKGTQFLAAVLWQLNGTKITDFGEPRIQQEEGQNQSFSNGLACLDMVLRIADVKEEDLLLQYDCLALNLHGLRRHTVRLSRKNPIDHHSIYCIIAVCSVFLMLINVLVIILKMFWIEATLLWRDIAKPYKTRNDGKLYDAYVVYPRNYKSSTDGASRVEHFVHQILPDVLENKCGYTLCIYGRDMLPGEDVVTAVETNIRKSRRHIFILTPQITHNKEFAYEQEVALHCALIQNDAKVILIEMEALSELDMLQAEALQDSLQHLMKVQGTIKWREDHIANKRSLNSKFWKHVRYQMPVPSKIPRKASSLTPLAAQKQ

target: Interleukin-1 receptor-like 1 (Homo sapiens) (UniProt Q01638); assay: blocks human ST2 binding to IL-33, primary screen, biochemical, AlphaLISA (AID 1259354); details: AlphaLISA ST2-Fc/biotin-IL-33 interaction, 1 h; at 17 µM, active compounds read high

| SMILES | inhibition |
| --- | --- |
| COc1cccc(CN2CCCC3(CCN(Cc4cccc(C(C)=O)c4)C3)C2)c1OC (configuration not stated) | inconclusive: 11% |
| N#CC(=C1CCCC1)c1nc(-c2cc3ccccc3oc2=O)cs1 | inconclusive: 24% |
| CN1N=Nc2ccc(Br)cc2C1c1ccccc1 (configuration not stated) | inactive |
| COc1cc(CN2C(=O)c3c(C)nc4ccccc4c3C2=O)cc(OC)c1OC | inconclusive: 10% |
| COc1cc(CCc2ccc(OCC(O)C(C)(C)O)cc2)cc2c1OCO2 (configuration not stated) | inconclusive: 25% |
| Cc1nc(C(C)C)ncc1C(=O)N(C)Cc1cccc2cnccc12 | inconclusive: 28% |
| CCOCC(=O)N1CCc2c(nc(N(C)C)nc2N(C)C)C1 | inconclusive: 14% |
| Cc1nc2c(C(=O)NCc3cccs3)c[nH]n2c(=O)c1Cc1ccccc1Cl | inconclusive: 17% |
| CCCc1c(-c2ccccc2)ncn1Cc1ccc(C(=O)N2CCCC2)cc1 | inconclusive: 11% |
| Cc1cccc(OC2CCN(Cc3ccc(S(C)(=O)=O)cc3)CC2)c1 | inconclusive: 17% |
| Cc1ncsc1CCC(=O)N(C)Cc1cc(-c2ccccc2)on1 | inconclusive: 18% |
| CNCC(=O)NCc1cnc(-c2cccc(OC)c2)s1 | inconclusive: 12% |
| COc1ccc(CNCc2ccc(OC)c3ccccc23)c(OC)c1 | inconclusive: 12% |
| COc1ccc(C(=O)N2C[C@@H]3C[C@H](C2)c2ccc(-c4ccc5ccccc5c4)c(=O)n2C3)cc1 | inconclusive: 12% |
| CC(C)CSc1oc(-c2ccco2)nc1S(=O)(=O)c1ccc(F)cc1 | inactive |
| COc1ccc(Nc2cc(C)nc(Nc3ccc(NC(=O)CCCc4ccccc4)cc3)n2)cc1 | active: 31% |
| Cc1oc2cc(Br)c(OC(=O)C(C)(C)C)cc2c1C(=O)OC(C)C | inconclusive: 17% |
| c1cncc(C2Oc3ccccc3C3CC(c4cccs4)=NN32)c1 (configuration not stated) | inconclusive: 12% |
| Fc1ccc(Cc2cnc(Nc3ccc(F)cc3)s2)cc1 | inconclusive: 17% |
| C(=C(c1nnnn1-c1ccccc1)c1nnnn1-c1ccccc1)c1ccccc1 | inconclusive: 17% |
| O=C(NCc1ccccc1)Nc1ccc(Cl)cc1 | active: 30% |
| Cc1ccc(Nc2nnc(Cc3ccccc3)c(=O)[nH]2)cc1 | inactive |
| O=C1NC[C@@H](CCC(=O)N2CCOCC2)N2C[C@@H](NC(=S)NC3CC3)C[C@@H]12 | inactive |
| CCCC(=O)NC(C)c1nc2ccccc2n1CC (configuration not stated) | inconclusive: 11% |

Random excerpt: 2 entries already listed

| SMILES | inhibition |
| --- | --- |
| COc1cc(CN2C(=O)c3c(C)nc4ccccc4c3C2=O)cc(OC)c1OC | inconclusive: 10% |
| N#CC(=C1CCCC1)c1nc(-c2cc3ccccc3oc2=O)cs1 | inconclusive: 24% |

(cont.)

| SMILES | inhibition |
| --- | --- |
| Cc1ccc(Nc2nc(-c3ccc(O)c(O)c3)cs2)nc1 | active: 42% |
| FC(F)(F)c1cc(-c2ccco2)nc(-n2ccnc2)n1 | inconclusive: 17% |
| COC(=O)Cc1nc(N2CCN(c3ccc(OC)cc3)CC2)c2c(C)c(C)sc2n1 | inconclusive: 24% |
| CCN(CC)[C@H]1[C@@H]2OC[C@@H](O2)[C@@H](NC(=O)Nc2cccc(OC)c2)[C@@H]1O | inconclusive: 15% |
| CN(Cc1cscn1)C(=O)c1nn(CC2CC2)c2c1CN(C(=O)Cn1cnc3ccccc31)CC2 | inconclusive: 21% |
| O=C(Nc1ccc(Br)cc1F)C1CCN(S(=O)(=O)c2ccc(F)cc2)CC1 | inactive |
| COc1ccc(N/C=C(/c2cc(O)ccc2O)[N+](=O)[O-])cc1 | active: 45% |
| Cc1cccc(Nc2nnc(C(C)(C)C)c(=O)[nH]2)c1C | inactive |
| CC(C)Cn1cc(C(=O)N2CCN(c3ccccn3)CC2)c2c3ccccc3n(C)c2c1=O | inactive |
| C=CCNC(=O)c1cnn2c1NC(c1cccs1)CC2C(F)(F)F (configuration not stated) | inactive |
| CN1CCN(Cc2ccc(-c3cccc([N+](=O)[O-])c3)o2)CC1 | inconclusive: 18% |
| COc1ccc(Br)cc1C1SCCN1S(=O)(=O)c1ccc(C)c([N+](=O)[O-])c1 (configuration not stated) | inconclusive: 12% |
| Cc1cc(Br)ccc1OCC(=O)Nc1ccc2c(c1)OCCO2 | inactive |
| CC(=O)N1c2ccc(N=Cc3ccccc3[N+](=O)[O-])cc2CC1C (configuration not stated) | inconclusive: 21% |
| CN1CCOC(CCNC(=O)c2cccc3cnccc23)C1 (configuration not stated) | inconclusive: 20% |
| Cc1nnc(-c2ccccc2-c2ccc(C(=O)N(C)C)cc2)s1 | inactive |
| COc1cccc(CNC(=O)CSc2nc(-c3ccc4c(c3)OCO4)nc3cc(=O)[nH]n23)c1 | inactive |
| Cc1nn(Cc2ccccc2)c(C)c1S(=O)(=O)O | inconclusive: 25% |
| COc1cc(/C=C2/NC(=O)NC2=O)c(Br)cc1OCc1ccccc1 | inconclusive: 13% |
| O=C(COc1nsnc1N1CCOCC1)Nc1ccc(Br)cc1 | inconclusive: 10% |
| CCCn1c2ccccc2c2nnc(SCC(=O)c3ccccc3)nc21 | inactive |
| O=C(C[C@@H]1O[C@H](CNS(=O)(=O)c2ccc(Cl)cc2)[C@@H](O)[C@H]1O)N1CCCC1 | inconclusive: 13% |
| O=c1c2cnn(-c3ccccc3)c2nc(-c2ccccc2F)n1-c1ccccc1 | inconclusive: 17% |
| COc1ccc(C(=O)COc2ccccc2OC)cc1OC | inconclusive: 26% |

| SMILES | inhibition |
| --- | --- |
| Cc1ccc(-n2nc(C)c([C@@H]3C=C[C@@H](NC(=O)Nc4ccc(Cl)cc4)C3)c2C)cc1Cl | inconclusive: 16% |
| COc1cccc(Nc2nc(Cl)ccc2[N+](=O)[O-])c1 | inconclusive: 16% |
| CN(C)CC1(O)CCCN(C(=O)c2ccc3ccccc3n2)C1 (configuration not stated) | inconclusive: 10% |
| CCOC(=O)CSc1nc2c(c(=O)n1-c1ccc(F)cc1)SCC2 | inactive |
| N#CC1=C(N)n2c(nc3ccccc32)NC1c1ccc(F)cc1 (configuration not stated) | inactive |
| C(=Nc1ccc2c(c1)OCCO2)c1ccc(OCc2ccccc2)cc1 | inconclusive: 21% |
| CCCCNC(=O)CN1C(=O)/C(=C\c2ccc(C(F)(F)F)cc2)Sc2ccccc21 | inconclusive: 21% |
| O=C(c1ccoc1)N1CCOc2c(O)cc(-c3cccc(Cl)c3)cc2C1 | inconclusive: 22% |
| Cc1ccc(N=Cc2cc(C)cc([N+](=O)[O-])c2O)c(Cl)c1 | active: 30% |
| COCCc1noc(CN(C)C(=O)c2oc3cc(C)ccc3c2C)n1 | inactive |
| O=C(CSc1ccncc1)N1CCN2C(=O)N(CCc3cccs3)C(=O)[C@H]2C1 | inconclusive: 10% |
| N#CCCN(CCc1ccccc1)S(=O)(=O)c1cccc2nsnc12 | inconclusive: 15% |
| CCOc1ccc(S(=O)(=O)N(C(=O)c2ccncc2)c2ccc3oc4c(c3c2)CCCC4)cc1 | inconclusive: 16% |
| CC(C)CN1CCN(Cc2ccoc2)C(CCO)C1 (configuration not stated) | inconclusive: 22% |
| O=[N+]([O-])c1ccc(-c2noc(-c3ccc(I)cc3)n2)cc1 | inconclusive: 15% |
| CCOc1ccc2c(c1)C(NCCN1CCOCC1)CC(C)(C)O2 (configuration not stated) | inactive |
| Cc1onc(-c2ccccc2)c1C(=O)NC1CCCCC1 | inconclusive: 14% |
| Cc1cccc(C(=O)N2CCC(c3ccccc3C(=O)O)C2)c1C (configuration not stated) | inconclusive: 14% |
| COCc1cc(CC2(NCC(C)(C)C)COC2)no1 | inconclusive: 11% |
| Cc1nc2ccc3nc(NC(=O)c4ccco4)sc3c2s1 | inconclusive: 10% |
| Cc1cc(C2CCC2)nc(N2CCNC(C(=O)O)C2)n1 (configuration not stated) | inconclusive: 17% |
| COc1ccc2c(c1OC)C(=O)N(c1ccc(OC(F)(F)F)cc1)C2 | inconclusive: 15% |
| COc1cccc(C(=O)Nc2c3c(nn2-c2cccc(Cl)c2)CS(=O)C3)c1OC (configuration not stated) | inactive |
| CCc1ccc(NC(=O)c2coc(=O)c3ccccc23)cc1 | inconclusive: 10% |
